Experimental findings from PMC5648759 are described below.

Protein sequences, listed by entry. Tags and fused reporters are not part of them.
UniProt P05549: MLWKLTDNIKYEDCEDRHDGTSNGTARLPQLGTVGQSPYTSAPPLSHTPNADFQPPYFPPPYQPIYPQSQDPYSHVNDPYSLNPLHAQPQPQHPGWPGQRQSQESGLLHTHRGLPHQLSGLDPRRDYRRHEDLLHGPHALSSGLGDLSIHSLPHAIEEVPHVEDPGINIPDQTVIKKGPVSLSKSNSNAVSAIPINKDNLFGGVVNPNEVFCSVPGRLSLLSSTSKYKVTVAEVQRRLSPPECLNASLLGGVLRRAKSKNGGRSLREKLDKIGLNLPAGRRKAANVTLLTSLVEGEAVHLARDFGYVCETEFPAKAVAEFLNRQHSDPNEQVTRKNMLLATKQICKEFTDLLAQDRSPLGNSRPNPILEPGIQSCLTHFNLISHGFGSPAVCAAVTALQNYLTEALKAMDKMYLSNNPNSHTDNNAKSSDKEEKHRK
UniProt P43268: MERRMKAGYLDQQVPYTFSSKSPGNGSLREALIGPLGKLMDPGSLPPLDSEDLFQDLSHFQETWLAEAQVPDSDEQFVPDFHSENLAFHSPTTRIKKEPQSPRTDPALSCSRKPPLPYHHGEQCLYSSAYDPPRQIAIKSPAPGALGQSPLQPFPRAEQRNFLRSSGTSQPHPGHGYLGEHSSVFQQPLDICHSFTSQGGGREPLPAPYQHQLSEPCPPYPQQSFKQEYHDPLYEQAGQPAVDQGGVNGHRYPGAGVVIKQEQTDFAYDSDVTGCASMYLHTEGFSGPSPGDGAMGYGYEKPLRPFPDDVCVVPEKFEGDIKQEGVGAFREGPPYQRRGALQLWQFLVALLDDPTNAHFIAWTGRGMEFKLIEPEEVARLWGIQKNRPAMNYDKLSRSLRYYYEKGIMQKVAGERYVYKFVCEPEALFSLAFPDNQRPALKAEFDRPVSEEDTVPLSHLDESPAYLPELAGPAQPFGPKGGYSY
UniProt P08047: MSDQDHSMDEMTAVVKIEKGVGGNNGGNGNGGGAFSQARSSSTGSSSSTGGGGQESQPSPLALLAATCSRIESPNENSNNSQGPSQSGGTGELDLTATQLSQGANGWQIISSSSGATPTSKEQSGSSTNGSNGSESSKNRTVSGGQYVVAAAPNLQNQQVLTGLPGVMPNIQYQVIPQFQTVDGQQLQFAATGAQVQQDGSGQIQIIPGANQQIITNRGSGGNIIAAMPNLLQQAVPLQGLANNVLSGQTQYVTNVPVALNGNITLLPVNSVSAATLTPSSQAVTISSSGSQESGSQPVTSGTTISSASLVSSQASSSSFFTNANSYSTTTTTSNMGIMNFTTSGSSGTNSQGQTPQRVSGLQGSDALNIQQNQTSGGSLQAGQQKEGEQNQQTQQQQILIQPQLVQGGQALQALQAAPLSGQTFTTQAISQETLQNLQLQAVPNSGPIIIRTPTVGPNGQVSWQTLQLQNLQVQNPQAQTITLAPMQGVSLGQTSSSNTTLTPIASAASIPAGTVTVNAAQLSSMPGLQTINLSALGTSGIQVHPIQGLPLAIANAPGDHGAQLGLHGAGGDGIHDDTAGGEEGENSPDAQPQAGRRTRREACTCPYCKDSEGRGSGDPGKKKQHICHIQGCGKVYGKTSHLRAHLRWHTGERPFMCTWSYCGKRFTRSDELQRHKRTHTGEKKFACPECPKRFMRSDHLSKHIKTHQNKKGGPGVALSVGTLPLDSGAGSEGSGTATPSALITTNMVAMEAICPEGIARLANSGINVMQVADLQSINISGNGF

For test [1], the target named is T1, His-tagged human TFPI-2 (human) (UniProt P48307).
T1 sequence: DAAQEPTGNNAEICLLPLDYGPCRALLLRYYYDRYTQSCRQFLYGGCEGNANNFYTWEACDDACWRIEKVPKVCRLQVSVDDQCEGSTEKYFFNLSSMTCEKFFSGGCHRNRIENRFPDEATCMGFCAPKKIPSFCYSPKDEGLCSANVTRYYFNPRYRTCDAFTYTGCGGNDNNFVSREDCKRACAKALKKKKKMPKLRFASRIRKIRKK
In words: co-IP; Protein A beads conjugated with TFPI-2 antibodies or normal IgG; nuclear extracts of MDA231/TFPI-2 cells; on ice for 4 hrs; western blots with anti-TFPI-2, anti-PEA3, anti-AP-2α and anti-SP1 antibodies.

Test [2] has as its target AP-2α (human (endogenous in MDA231)) (UniProt P05549). In words: co-IP; reciprocal: Protein A beads conjugated with AP-2α antibodies or normal IgG; nuclear extracts of MDA231/TFPI-2 (and MDA231/con) cells; on ice for 4 hrs; western blots. (In general: Immunoblotting shows a protein as a band on a membrane.)

These are yes or no findings as the source states them, for the method shown. In cells and extracts the contact can be indirect. Some entries that bind do so weakly or less than the wild type. Sequences can lack the tags named with a protein.

As for AP-2α (from UniProt P05549 1-437), in test [1], the binding entry is “binds”. The same measure, in the same setting: with PEA3 (from UniProt P43268 1-484) the entry was “no binding”; with SP1 (from UniProt P08047 1-785), “no binding”.

B1: His-tagged human TFPI-2 (protein, UniProt P48307 23-233)
chain: DAAQEPTGNNAEICLLPLDYGPCRALLLRYYYDRYTQSCRQFLYGGCEGNANNFYTWEACDDACWRIEKVPKVCRLQVSVDDQCEGSTEKYFFNLSSMTCEKFFSGGCHRNRIENRFPDEATCMGFCAPKKIPSFCYSPKDEGLCSANVTRYYFNPRYRTCDAFTYTGCGGNDNNFVSREDCKRACAKALKKKKKMPKLRFASRIRKIRKK
As for B1, the binding entry in test [2] is given as “binds”.
